The target of experiment [1] is Cyclin D1-APEX (UniProt P25322). The experiment in a line: proximity labelling.
The target is the same in experiment [2]. As to the kind of experiment: proximity labelling. The source holds these as a separate data set.

By UniProt entry, the sequences of proteins in these tests, tags left out. Residues count along the entry.
UniProt P25322: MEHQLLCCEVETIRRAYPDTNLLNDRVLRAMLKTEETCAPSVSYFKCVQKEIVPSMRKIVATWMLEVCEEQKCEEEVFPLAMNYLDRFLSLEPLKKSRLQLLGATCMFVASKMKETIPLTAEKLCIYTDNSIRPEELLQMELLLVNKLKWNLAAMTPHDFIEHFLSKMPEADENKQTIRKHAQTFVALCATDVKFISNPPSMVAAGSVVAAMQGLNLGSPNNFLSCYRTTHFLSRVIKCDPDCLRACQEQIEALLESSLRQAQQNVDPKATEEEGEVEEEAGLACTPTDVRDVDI
UniProt P08113, residues 22-802: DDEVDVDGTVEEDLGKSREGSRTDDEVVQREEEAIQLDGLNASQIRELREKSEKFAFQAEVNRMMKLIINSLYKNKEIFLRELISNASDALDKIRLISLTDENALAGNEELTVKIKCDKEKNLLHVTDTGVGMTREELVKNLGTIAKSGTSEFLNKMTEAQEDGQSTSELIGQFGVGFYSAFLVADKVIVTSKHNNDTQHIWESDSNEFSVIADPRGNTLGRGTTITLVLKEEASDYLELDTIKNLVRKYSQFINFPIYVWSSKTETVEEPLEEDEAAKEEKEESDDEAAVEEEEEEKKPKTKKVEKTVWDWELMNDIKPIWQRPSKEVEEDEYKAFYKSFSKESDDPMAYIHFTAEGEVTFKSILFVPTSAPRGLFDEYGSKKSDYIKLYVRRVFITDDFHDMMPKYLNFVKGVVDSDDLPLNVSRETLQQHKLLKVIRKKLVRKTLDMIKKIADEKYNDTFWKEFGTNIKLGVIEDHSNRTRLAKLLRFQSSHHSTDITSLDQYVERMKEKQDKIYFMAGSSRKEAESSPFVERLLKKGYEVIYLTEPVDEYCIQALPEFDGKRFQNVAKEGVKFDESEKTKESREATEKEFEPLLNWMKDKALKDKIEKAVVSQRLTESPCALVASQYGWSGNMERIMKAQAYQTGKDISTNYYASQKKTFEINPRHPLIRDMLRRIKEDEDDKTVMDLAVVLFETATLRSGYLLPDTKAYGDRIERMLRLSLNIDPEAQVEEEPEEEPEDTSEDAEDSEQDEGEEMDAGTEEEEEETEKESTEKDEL
UniProt P09405: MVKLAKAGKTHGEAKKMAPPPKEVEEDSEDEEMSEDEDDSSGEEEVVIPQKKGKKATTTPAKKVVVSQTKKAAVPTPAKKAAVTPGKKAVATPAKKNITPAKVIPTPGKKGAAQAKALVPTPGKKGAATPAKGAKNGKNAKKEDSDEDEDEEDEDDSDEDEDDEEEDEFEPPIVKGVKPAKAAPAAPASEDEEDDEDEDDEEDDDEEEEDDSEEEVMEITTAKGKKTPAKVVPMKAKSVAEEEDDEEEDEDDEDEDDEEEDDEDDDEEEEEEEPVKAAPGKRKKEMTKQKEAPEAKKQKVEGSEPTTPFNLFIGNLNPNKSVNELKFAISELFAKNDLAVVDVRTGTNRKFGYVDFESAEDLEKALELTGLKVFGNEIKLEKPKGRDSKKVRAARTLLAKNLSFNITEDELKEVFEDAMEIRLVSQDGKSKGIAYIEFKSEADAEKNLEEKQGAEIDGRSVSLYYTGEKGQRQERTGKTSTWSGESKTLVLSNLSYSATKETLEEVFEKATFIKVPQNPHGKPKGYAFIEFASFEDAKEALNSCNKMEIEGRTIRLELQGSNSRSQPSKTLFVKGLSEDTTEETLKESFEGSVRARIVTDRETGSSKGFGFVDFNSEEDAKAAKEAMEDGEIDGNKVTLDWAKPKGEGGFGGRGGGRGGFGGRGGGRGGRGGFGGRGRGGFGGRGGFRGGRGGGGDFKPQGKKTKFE

Where two headings read alike, the source gives them in different places. Results are given in words; binding and its absence hold for the method and conditions named. Binding seen in cells or lysates may run through a third protein. A yes stands for co-enrichment or nearness to the bait. Other partners may have been found.

Turning to Hsp90b1 (from UniProt P08113 22-802), the binding result in experiment [1] was “binds”.

For nucleolin (from UniProt P09405 1-707), in experiment [1], the binding entry is “binds”.

B1: Lin28 (protein, UniProt Q8K3Y3 1-209)
chain: MGSVSNQQFAGGCAKAAEKAPEEAPPDAARAADEPQLLHGAGICKWFNVRMGFGFLSMTARAGVALDPPVDVFVHQSKLHMEGFRSLKEGEAVEFTFKKSAKGLESIRVTGPGGVFCIGSERRPKGKNMQKRRSKGDRCYNCGGLDHHAKECKLPPQPKKCHFCQSINHMVASCPLKAQQGPSSQGKPAYFREEEEEIHSPALLPEAQN
modifications: biotinylated by APEX (biotin-phenol)
Turning to B1, the binding result in experiment [2] is on record as “binds”.

Values taken from publication doi:10.1101/2021.05.09.443321.
